From the supplement of paper PMC12764529
± gives the half width of the 95% confidence interval. The two proteases of the assay disagree for many of these sequences.

Columns and labels:
[1] = folding stability dG unfold from trypsin proteolysis; higher = more stable
Procedure: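 Folding stability of de novo designed mini-proteins (<80 aa, no Cys; designed by TrROS, TrMRF, ProteinMPNN and the joint model) was measured by cDNA display proteolysis with trypsin and chymotrypsin. Each protease was used at 11 concentrations in a threefold dilution series plus a no-protease condition. K50 was inferred by Bayesian fitting of sequencing counts, and dG unfold was derived against a sequence-predicted unfolded-state K50 (Tsuboyama et al. method). Sequences shown include variable-length N-terminal GS-type padding (SAGGSAGG...) inside a display construct carrying a PA tag. Rows were kept only if the AF2 dimer inter-PAE was >15, to exclude likely homo-oligomers.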

[2] = folding stability dG unfold from chymotrypsin proteolysis; higher = more stable
In short: (§1)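 Digests were run with trypsin and chymotrypsin at 11 concentrations in threefold dilutions, plus a no-protease condition, on designed mini-proteins in a PA-tagged cDNA display construct. The mini-proteins were under 80 residues, had no cysteine, and were kept only when AlphaFold2 dimer inter-PAE was above 15. After sequencing, Bayesian fitting of the counts gave K50, from which unfolding free energy was derived against a sequence-predicted unfolded-state K50 and a shared folded-state K50, per protease or combined.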

[3] = folding stability dG unfold (combined trypsin and chymotrypsin); higher = more stable
In short: as §1

| Sequence | folding stability dG unfold [1] [kcal/mol] | folding stability dG unfold [2] [kcal/mol] | folding stability dG unfold [3] [kcal/mol] |
| --- | --- | --- | --- |
| SDEIAELLKKLLEELGYEVEVRVERLPEGEDEIVVTVRVRKPLPEGRVKEVELTLRIKKVDGKLVVELLPSA [r9_489_TrROS_Hall] | 2.71 ± 0.071 | 5.34 ± 0.2 | 4.8 ± 0.12 |
| SAGMSVEDLIAKAKAEIEKAKKEGLKEITINFPYSPEDLEALRKALPSNVTITPSETNTVTITFKIPEKSAG [r5_268_JUSTAS] | 2 ± 0.067 | 4.34 ± 0.054 | 3.92 ± 0.089 |
| SAGGMEEKIKELAEKLGIKEVYPEEEIKKLPEEEKGKIVIVVDEDGNVHIYIILPNGKKIEFTFKVKSAGGS [r16_686_TrROS_Hall] | 0.899 ± 0.23 | 4.43 ± 0.16 | 3.47 ± 0.57 |
| SAGIKLPPGQPVPFYVVKIEWEWSLSPNPDGQWMLSLSMRIEIVPFEIKVPPVPTVKVPPGAKDPEDAKSAG [r5_770_TrROS] | 2.06 ± 0.1 | 4.3 ± 0.14 | 4.07 ± 0.3 |
| SAGGSAGGSAGGSIPPDVEVEVVETLEVEGDGKTYRYTRISVVRVTSVTPASPERIALASAGGSAGGSAGGS [r10_175_JUSTAS] | 1.75 ± 0.069 | 4.31 ± 0.084 | 3.31 ± 0.2 |
| SAGGSAGGRLRFRTREEAERAARRLREAGYEVRVEVEERDGELTVTIEIRPRPPPPPVVVLPGRSAGGSAGG [r6_181_TrROS_Hall] | 0.593 ± 0.24 | 4.05 ± 0.11 | 3.52 ± 0.26 |
| SAGGIDLSKLPKNSIVVITKVKVYPTKVGEPDGEGEGYVEVELRVFRNIPPTGKILSSPLPVKFKIASAGGS [r8_486_TrMRF] | 1.19 ± 0.04 | 0.987 ± 0.25 | 1.17 ± 0.12 |
| SATITVEYDKETGTITVTVKVKDKETGEELSAEEIAKKLKELFPEAEIVKIEKLPDGTVKITIKLKKEKKSA [r9_87_TrROS_Hall] | 0.826 ± 0.12 | 3.14 ± 0.14 | 2.69 ± 0.18 |
| SAGGDILEKAIDHAQRNGEPAEIYLPLPDPNGEPWVIRIEVRIKPDPDDPNKYKIEINIEIVPPKDISAGGS [r16_323_TrROS] | 2.16 ± 0.086 | 4.49 ± 0.17 | 3.95 ± 0.2 |
| MRLYLVKVEIRREEVDPETGEVREEKLELTVLVREEDEEALEKAEELARKLAEEEGIKEVKVEVVELPAEES [r1_346_TrROS_Hall] | 2.3 ± 0.09 | 2.62 ± 0.079 | 2.47 ± 0.25 |
| SAGAKITYDKENKTITITITNKNGYKVTIEIEIKKDKNGKYTITKIKVTVYKNGKKILSAEELLKKLLKSAG [r5_842_TrROS_Hall] | 1.71 ± 0.21 | 4.38 ± 0.22 | 4.31 ± 0.43 |
| SAMKVVKKTFPPSVSKEEAIAEAEAELKAKGLEIEEVKVEELPDGTILVTLTVKEKPEMSPEVVEEIKKSAG [r14_110_JUSTAS] | 0.963 ± 0.025 | 3.49 ± 0.1 | 2.93 ± 0.12 |
| SAGGMTVTLTVPSPEEAEAAARAIAEELRAAHPEAEVVVRPLAVVPDPATGTYTVTVPITVRLPDEPLSAGG [r13_585_JUSTAS] | -0.437 ± 0.32 | 1.99 ± 0.047 | 1.59 ± 0.078 |
| SAGGKAEEIAKKLAEELRKKYNIEKVEITVEEKDGKLTITITVKFKGKPNKTIKITIEFKPKKKKKKSAGGS [r16_397_TrROS_Hall] | 1.39 ± 0.069 | 5.01 ± 0.12 | 4.51 ± 0.3 |
| SHYIFMRVEVEPPNGEKREREVPVDFPPGETMSEFLDDLNIPAEGIDKVKIEMYMWDNGKPEVMEMTITVSA [r9_755_TrROS] | 2.1 ± 0.12 | 4.35 ± 0.071 | 3.55 ± 0.19 |
| SMIKPGEKIKKIKLKLENGEEVEATLVKNEDGSLVLFIKVDGEVYVFTFNPDGEIKIEKVSKEEAEKLLKSA [r9_1144_TrROS_Hall] | 2.05 ± 0.097 | 3.79 ± 0.046 | 3.4 ± 0.15 |
| SAGMKEELKEAIEKLFKEKGINVSEVKVEKLPNGEYKVTVKLPDGKPLFEVPLPPSAESAEIIIEKIKKSAG [r5_352_JUSTAS] | 0.846 ± 0.14 | 3.79 ± 0.86 | 3.08 ± 0.57 |
| SAGGSAGGSPAPRFTFSLTVTVERTYPTADGSTRTERFTFTVTGTATVAPPAIGPELARTLGESAGGSAGGS [r12_1060_TrMRF] | 0.7 ± 0.1 | 3.982 ± 0.033 | 3.56 ± 0.14 |
| SAMMVYKVRIVVKFKEGEKEIELEIEAETLEELLEEIRKKLGLEEVEIVKIEVEPVPSEEELKKLEEKKSAG [r14_852_TrROS_Hall] | 1.88 ± 0.036 | 4.74 ± 0.12 | 4.36 ± 0.15 |
| SAGKIKPGEKKEITIKVDGKEYKITMTTYKNEDGSTYKVIEVEVNGKKYTFVVKEGEKVTLEELKKLLKSAG [r5_138_TrROS_Hall] | 2.62 ± 0.18 | 5.18 ± 0.16 | 5.09 ± 0.31 |
| SAGGSADPKGQPPKTYTVMIMFKVPKPGQPLEITEEWIREIFRPFGVKVNIHRHGDYVMIEVTFYVSAGGSA [r15_377_TrROS] | 2.7 ± 0.1 | 5.9 ± 0.095 | 5.7 ± 0.2 |

Twelve entries from above, with tabs.
Sequence	folding stability dG unfold [1] [kcal/mol]	folding stability dG unfold [2] [kcal/mol]	folding stability dG unfold [3] [kcal/mol]
SDEIAELLKKLLEELGYEVEVRVERLPEGEDEIVVTVRVRKPLPEGRVKEVELTLRIKKVDGKLVVELLPSA [r9_489_TrROS_Hall]	2.71 ± 0.071	5.34 ± 0.2	4.8 ± 0.12
SAGMSVEDLIAKAKAEIEKAKKEGLKEITINFPYSPEDLEALRKALPSNVTITPSETNTVTITFKIPEKSAG [r5_268_JUSTAS]	2 ± 0.067	4.34 ± 0.054	3.92 ± 0.089
SAGIKLPPGQPVPFYVVKIEWEWSLSPNPDGQWMLSLSMRIEIVPFEIKVPPVPTVKVPPGAKDPEDAKSAG [r5_770_TrROS]	2.06 ± 0.1	4.3 ± 0.14	4.07 ± 0.3
SAGGSAGGRLRFRTREEAERAARRLREAGYEVRVEVEERDGELTVTIEIRPRPPPPPVVVLPGRSAGGSAGG [r6_181_TrROS_Hall]	0.593 ± 0.24	4.05 ± 0.11	3.52 ± 0.26
SAGGIDLSKLPKNSIVVITKVKVYPTKVGEPDGEGEGYVEVELRVFRNIPPTGKILSSPLPVKFKIASAGGS [r8_486_TrMRF]	1.19 ± 0.04	0.987 ± 0.25	1.17 ± 0.12
SATITVEYDKETGTITVTVKVKDKETGEELSAEEIAKKLKELFPEAEIVKIEKLPDGTVKITIKLKKEKKSA [r9_87_TrROS_Hall]	0.826 ± 0.12	3.14 ± 0.14	2.69 ± 0.18
SAGGDILEKAIDHAQRNGEPAEIYLPLPDPNGEPWVIRIEVRIKPDPDDPNKYKIEINIEIVPPKDISAGGS [r16_323_TrROS]	2.16 ± 0.086	4.49 ± 0.17	3.95 ± 0.2
SAGGMTVTLTVPSPEEAEAAARAIAEELRAAHPEAEVVVRPLAVVPDPATGTYTVTVPITVRLPDEPLSAGG [r13_585_JUSTAS]	-0.437 ± 0.32	1.99 ± 0.047	1.59 ± 0.078
SAGGKAEEIAKKLAEELRKKYNIEKVEITVEEKDGKLTITITVKFKGKPNKTIKITIEFKPKKKKKKSAGGS [r16_397_TrROS_Hall]	1.39 ± 0.069	5.01 ± 0.12	4.51 ± 0.3
SHYIFMRVEVEPPNGEKREREVPVDFPPGETMSEFLDDLNIPAEGIDKVKIEMYMWDNGKPEVMEMTITVSA [r9_755_TrROS]	2.1 ± 0.12	4.35 ± 0.071	3.55 ± 0.19
SAGGSAGGSPAPRFTFSLTVTVERTYPTADGSTRTERFTFTVTGTATVAPPAIGPELARTLGESAGGSAGGS [r12_1060_TrMRF]	0.7 ± 0.1	3.982 ± 0.033	3.56 ± 0.14
SAGGSADPKGQPPKTYTVMIMFKVPKPGQPLEITEEWIREIFRPFGVKVNIHRHGDYVMIEVTFYVSAGGSA [r15_377_TrROS]	2.7 ± 0.1	5.9 ± 0.095	5.7 ± 0.2

Further entries follow:

| Sequence | folding stability dG unfold [1] [kcal/mol] | folding stability dG unfold [2] [kcal/mol] | folding stability dG unfold [3] [kcal/mol] |
| --- | --- | --- | --- |
| SAGGMLLKLPLSSVEIPPDASEEEIEEAKRKLAKPKVVKVTEEVLIEENGIVKKVKVTKYVSLSVEESAGGS [r16_387_JUSTAS] | 0.845 ± 0.082 | 0.56 ± 0.29 | 0.87 ± 0.12 |
| SAGGSAGGAKPPKTVTVKVEVTNADGETQTRTVTLTNLPKDLKPGDTVTLPETGQTARIVEITPSAGGSAGG [r6_560_TrROS_Hall] | 3.27 ± 0.078 | 3.02 ± 0.097 | 3.17 ± 0.1 |
| SAGGMEIVSSGSLEEAIALLKENPNTTITVTLPDGTTVVIKVTQNGEGPYIYDVSTEPPAAAPSPSLVSAGG [r13_56_JUSTAS] | 2.15 ± 0.096 | 1.1 ± 0.038 | 1.66 ± 0.079 |
| SAGMKKVIELTIPVTGPEEVEELVAKLEEEEPAVPVERRPDPRLGAVRVVVEKKFPDSIVYITLTAAASAGG [r19_262_JUSTAS] | 0.784 ± 0.042 | 0.496 ± 0.071 | 0.677 ± 0.065 |
| SAGGSAEPVITVTVTPIPEKGEVVITITFPDGTRYTRTLPYSSPEEAEARAAELVAELIAEYRAAASAGGSA [r15_477_JUSTAS] | 2.56 ± 0.093 | 4.69 ± 0.06 | 4.39 ± 0.044 |
| SAADPVTVTATFPLTVTTTRLVGLSPDGTPVYRTEPRTLTLTFTATVPADPELVEEALRAAAEAAEALGSAG [r14_223_TrMRF] | 0.0216 ± 0.18 | 3.22 ± 0.069 | 2.45 ± 0.11 |
| SAGGSAKLTLTIVLKVKPGQKINLTLTLPNGVKAKITSVEVDEETGYIVVEIEIEVEVHPDDPALKSAGGSA [r15_994_TrROS_Hall] | 2.29 ± 0.074 | 5.3 ± 0.22 | 4.79 ± 0.54 |
| SAGGSAGGSAQEIYFIANSPEDIRNELEKLFPNFKIDIEPIERDENGYVMFKVTIEIPPGMKSAGGSAGGSA [r18_464_TrROS] | 1.19 ± 0.051 | 3.72 ± 0.04 | 3.16 ± 0.15 |
| SAFKIEVYPTKDDGYTVKLTFQHPGYYIEVTITIPPEAAKKGIPLDDIKPIEITEIELIPIPKPDPGDPSAG [r14_856_TrROS] | 2.34 ± 0.28 | 5.13 ± 0.3 | 4.9 ± 0.56 |
| SAGGSAMKLTLKDKKGNTLFLEVEEKTSEDGTPYYEVKIYYPNTNKVEYAEVPVENLEEFAKKLADSAGGSA [r15_92_TrMRF] | 3.21 ± 0.09 | 3.31 ± 0.086 | 3.25 ± 0.18 |
| SAGGMPEPRPIPLTLTLLVDPEDPESVEEKLREFFEAFGADEITRVERELLPDGRALVTAEVLVNEPVSAGG [r13_222_TrMRF] | 1.03 ± 0.03 | 1.17 ± 0.043 | 1.15 ± 0.061 |
| SAKIKIEKVEATKEGDYLYVTATLTLEDGSKITVTYKIDKNGKILDYKVEIDPVPPPISDEALEKLKKKSAG [r14_171_TrMRF] | 1.07 ± 0.11 | 3.2 ± 0.083 | 2.57 ± 0.56 |
| SASIVVPLAELEALVAAVPGLAAARDPATGLLTLTDPATGARTLVTVTTDPNDPNVVTVEVTTTPLPPASAG [r14_604_JUSTAS] | -0.478 ± 0.36 | 1.89 ± 0.048 | 1.21 ± 0.18 |
| SAGGSAGGSAPDDDQPPEEVEPKPVTIRIPFPLDDLPAKEAKKYAEEFAKRLPDYKVEVDAWSAGGSAGGSA [r18_499_TrROS] | -0.476 ± 0.57 | 3.46 ± 0.21 | – |
| SKIEITPDGSVRITLTLTFTLEDGYEITIKVEVTINVDGEISVSVSIEIRPLPPPPPEKVVVLDEDGKLVSA [r9_1168_TrROS_Hall] | 2.73 ± 0.17 | 5.36 ± 0.3 | – |
| SAGGSAGGSKVKKIELKLEFEFKVKVKTKTKDGKEKEEEKEVKVEIKLKFTFDKNGKLIKIEPSAGGSAGGS [r20_58_TrROS_Hall] | 2.08 ± 0.19 | 4.66 ± 0.4 | – |
| SAGGSAGGSSMPVKVTRTPVPSSAPPSTEFLETVTYPDGTVTTYRFRRDDGSVTSVRVSTSPASAGGSAGGS [r12_1049_JUSTAS] | -0.535 ± 0.71 | – | < -1 |
| SAEEELRKLVEELARELAKENGLEEVTVTLTVTVTKTVTVTDADGKKHTVTTTVTVTLTVTLTLPPEDLSAG [r14_232_TrROS_Hall] | 3.94 ± 0.89 | – | > 6 |
| SAGGSAGGSAGGSSVETSTLPDGSVVETTRLPDGGVVVTEATVPPDGSVTVTSTSVLPLSAGGSAGGSAGGS [r4_246_JUSTAS] | 2.03 ± 0.11 | – | 1.13 ± 0.13 |
| SAGGSSVTVTPTPDGMVVTVETDGETVTVPLSPEVAAEIAANPDLAAVLAALFPPGRPVASVSVEPASAGGS [r16_567_JUSTAS] | 1.54 ± 0.06 | – | 0.582 ± 0.053 |
